Data: publication PMC5378391, “Maltose binding protein-fusion enhances the bioactivity of truncated forms of pig myostatin propeptide produced in E. coli” (PLoS ONE, 2017)
No constants are given. Whether binding was seen depends on the method and setting. For some of these results: Binding calls can cover weak binding; strength is not graded here.

What was measured:
[1] = molecular target: MBP-fused truncated pig MSTNpro containing residues 42-175 (pig) (UniProt O18831); assay: condition: only at 1 nM MBP-Pro42-175 with 6 nM MSTN; pull-down; as a2, but 1 nM MBP-Pro42-175 or MBP-Pro42-98 with 6 nM MSTN on amylose resin; immuno-blot against MSTN; both purified
[2] = molecular target: MBP-fused truncated pig MSTNpro containing residues 42-175 (pig) (UniProt O18831); assay: pull-down; MBP-MSTNpro protein (480 nM) plus MSTN (48 nM) mixed with 50 uL amylose resin in 1 mL, 2 hr at room temperature; washed three times with column buffer; eluted in reducing SDS-PAGE loading buffer; Coomassie blue staining; both purified
[3] = molecular target: MBP-fused truncated pig MSTNpro containing residues 42-115 (pig) (UniProt O18831); assay: as above
[4] = molecular target: MBP-fused truncated pig MSTNpro containing residues 42-175 (pig) (UniProt O18831); assay: pull-down; MSTN (6 nM) with 15, 30, 45 and 60 nM MBP-Pro42-175 or MBP-Pro42-98, or 60 nM MBP, on amylose resin; eluate immuno-blotted with monoclonal anti-MSTN antibody; both purified

For “Myostatin (MSTN) (from UniProt O14793 267-375) (ligand)”, the binding [1] was “no binding”, the binding [2] was “binds” and the binding [3] was “binds”. The binding [4] was “binds”.
